Experimental data reported in article PMC4811448.

The chains behind the UniProt entries cited, without tags or fusion partners. Where a name states a change or a piece, a line headed by the entry shows the natural chain unless it says otherwise.
UniProt Q04771: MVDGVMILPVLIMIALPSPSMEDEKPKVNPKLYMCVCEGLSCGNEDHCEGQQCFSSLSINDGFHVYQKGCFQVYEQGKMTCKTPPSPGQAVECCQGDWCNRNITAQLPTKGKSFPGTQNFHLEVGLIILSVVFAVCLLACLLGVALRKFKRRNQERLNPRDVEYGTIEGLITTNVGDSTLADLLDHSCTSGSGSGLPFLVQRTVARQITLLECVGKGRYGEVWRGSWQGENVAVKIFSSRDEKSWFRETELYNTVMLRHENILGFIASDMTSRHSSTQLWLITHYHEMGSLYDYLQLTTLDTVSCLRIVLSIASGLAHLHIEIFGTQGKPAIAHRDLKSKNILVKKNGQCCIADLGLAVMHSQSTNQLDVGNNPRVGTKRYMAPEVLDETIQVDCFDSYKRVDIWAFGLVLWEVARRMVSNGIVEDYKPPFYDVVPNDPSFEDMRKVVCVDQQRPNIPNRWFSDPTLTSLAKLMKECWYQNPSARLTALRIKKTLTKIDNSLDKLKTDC

Target: kinase-dead human ACVR1/ALK2, HA-tagged (adenovirally expressed) (human) (UniProt Q04771)
Experiment: proximity ligation; C2C12 cells transduced with adenoviruses, fixed and permeabilised; rabbit anti-HA and mouse anti-LKB1 antibodies, Duolink reagents

binding: binds
B1: endogenous mouse Lkb1 (C2C12) (enzyme, UniProt Q9WTK7 1-436)
chain: MDVADPEPLGLFSEGELMSVGMDTFIHRIDSTEVIYQPRRKRAKLIGKYLMGDLLGEGSYGKVKEVLDSETLCRRAVKILKKKKLRRIPNGEANVKKEIQLLRRLRHRNVIQLVDVLYNEEKQKMYMVMEYCVCGMQEMLDSVPEKRFPVCQAHGYFRQLIDGLEYLHSQGIVHKDIKPGNLLLTTNGTLKISDLGVAEALHPFAVDDTCRTSQGSPAFQPPEIANGLDTFSGFKVDIWSAGVTLYNITTGLYPFEGDNIYKLFENIGRGDFTIPCDCGPPLSDLLRGMLEYEPAKRFSIRQIRQHSWFRKKHPLAEALVPIPPSPDTKDRWRSMTVVPYLEDLHGRAEEEEEEDLFDIEDGIIYTQDFTVPGQVLEEEVGQNGQSHSLPKAVCVNGTEPQLSSKVKPEGRPGTANPARKVCSSNKIRRLSACKQQ

No constants are given. Whether binding was seen depends on the method and setting. In cells and extracts the contact can be indirect. Binding calls can cover weak binding; strength is not graded here.
